# Results as given in the supplement of paper PMC8866396.
# ± gives the standard deviation of the averaged measurements. The list shows a part of the results. This data set is noisy: repeats of one test often differ as much as different tests do.
# Tested on: IL-6-GFP PC-9GR
# Assay: IL-6-GFP fluorescence relative to DMSO control (fraction of control); higher = more IL-6-GFP expression
# Conditions: compound concentration: 10 uM; treatment time: 48 h
# Description: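 IL-6-GFP-overexpressing PC-9 and PC-9GR EGFR-mutant lung cancer cells (3000 cells/well, 96-well) were treated for 48 h with each compound of the Selleck L2000 library at 10 uM. IL-6-GFP fluorescence was read on a high-content screening system, and viability by CCK-8 absorbance on a parallel plate set. Each value was normalised as compound well / DMSO control well; two independent replicates.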
row,Compound,IL-6-GFP fluorescence
1,Cc1cccn2c(=O)c(-c3nnn[n-]3)cnc12.[K+] [Pemirolast potassium],0.896 ± 0.26
2,COC1=C(OC)C(=O)C(CCCCCCCCCCO)=C(C)C1=O [Idebenone],1.04 ± 0.4
3,CC(=O)[N-]S(=O)(=O)c1ccc(N)cc1.[Na+] [Sulfacetamide Sodium],0.626 ± 0.25
4,CC(C(=O)O)c1ccc2c(c1)Cc1cccnc1O2 (stereo not given) [Pranoprofen],0.79 ± 0.21
5,Nc1nc(N)c2nc(-c3ccccc3)c(N)nc2n1 [Triamterene],1.42 ± 0.028
6,CN(C(=O)c1c(O)c2ccccc2n(C)c1=O)c1ccccc1 [Roquinimex],1.13 ± 0.34
7,NCCNc1ccc(NCCN)c2c1C(=O)c1ccncc1C2=O.O=C(O)/C=C\C(=O)O.O=C(O)/C=C\C(=O)O [Pixantrone Maleate],0.747 ± 0.018
8,CC(=O)Nc1ccc(OC(=O)c2ccccc2OC(C)=O)cc1 [Benorylate],0.78 ± 0.021
9,CC1CC2C3CCC4=CC(=O)C=CC4(C)C3(F)C(O)CC2(C)C1(O)C(=O)COP(=O)([O-])[O-].[Na+].[Na+] (stereo not given) [Dexamethasone Sodium Phosphate],0.81 ± 0.098
10,CN1CCC(NC(=O)Nc2ccc(C#N)cc2)CC1c1nc2ccccc2[nH]1 (stereo not given),1.05 ± 0.062
11,CCOc1ccc(Cc2cc(C3OC(CO)C(O)C(O)C3O)ccc2Cl)cc1 (stereo not given) [Dapagliflozin],0.745 ± 0.31
12,C=CC1=C(C)c2cc3nc(cc4[nH]c(cc5[nH]c(cc1n2)c(C)c5C=C)c(C)c4CCC(=O)O)C(CCC(=O)O)=C3C [Protoporphyrin IX],1 ± 0.47
13,CC(=O)c1c(C)c2cnc(Nc3ccc(N4CCNCC4)cn3)nc2n(C2CCCC2)c1=O.Cl,0.791 ± 0.23
14,CC(C)Cn1cnc2c(N)nc3ccccc3c21 [Imiquimod],1.07 ± 0.16
15,CC#CCn1c(N2CCCC(N)C2)nc2c1c(=O)n(Cc1nc(C)c3ccccc3n1)c(=O)n2C (stereo not given) [Linagliptin],0.956 ± 0.022
16,Cc1ccc(Nc2c(F)cccc2Cl)c(CC(=O)O)c1 [Lumiracoxib],0.943 ± 0.14
17,Cc1ccc(C(C)C)cc2c(C)ccc1-2 [Guaiazulene],0.871 ± 0.063
18,COc1ccc2cc1Oc1ccc(cc1)CC1c3cc(c(OC)cc3CCN1C)Oc1c(OC)c(OC)cc3c1C(C2)N(C)CC3 (stereo not given) [Tetrandrine],0.787 ± 0.031
19,CC1CNc2c(cccc2S(=O)(=O)NC(CCCNC(=N)N)C(=O)N2CCC(C)CC2C(=O)O)C1.O (stereo not given) [Argatroban Monohydrate],0.869 ± 0.042
20,CNC(=O)c1cc(Oc2ccc(NC(=O)Nc3ccc(Cl)c(C(F)(F)F)c3)cc2)ccn1 [Sorafenib],0.872 ± 0.078

# Looked up above.
# Value for CC1CC2C3CCC4=CC(=O)C=CC4(C)C3(F)C(O)CC2(C)C1(O)C(=O)COP(=O)([O-])[O-].[Na+].[Na+] (stereo not given) [Dexamethasone Sodium Phosphate] under IL-6-GFP fluorescence: 0.81 ± 0.098
# Value for Cc1cccn2c(=O)c(-c3nnn[n-]3)cnc12.[K+] [Pemirolast potassium] under IL-6-GFP fluorescence: 0.896 ± 0.26

# (more compounds)

row,Compound,IL-6-GFP fluorescence
1,Cl.N=C1CCCN1Cc1[nH]c(=O)[nH]c(=O)c1Cl.O=c1[nH]c(=O)n(C2CC(O)C(CO)O2)cc1C(F)(F)F.O=c1[nH]c(=O)n(C2CC(O)C(CO)O2)cc1C(F)(F)F (stereo not given),1.1 ± 0.17
2,Cc1cc(Nc2ncc(Cl)c(Nc3ccccc3S(=O)(=O)C(C)C)n2)c(OC(C)C)cc1C1CCNCC1 [Ceritinib (LDK378)],0.537 ± 0.071
3,CC(=O)OC(C)OC(=O)C(C)c1ccc(-c2ccccc2)c(F)c1 (stereo not given) [Flurbiprofen Axetil],0.862 ± 0.017
4,CCCCCCCCc1ccc(CCC(N)(CO)CO)cc1 [Fingolimod],0.973 ± 0.11
5,CCC(C)n1ncn(-c2ccc(N3CCN(c4ccc(OCC5COC(Cn6cncn6)(c6ccc(Cl)cc6Cl)O5)cc4)CC3)cc2)c1=O (stereo not given) [Itraconazole],0.792 ± 0.15
6,COC(c1ccccc1)(c1ccccc1)C(Oc1nc(C)cc(C)n1)C(=O)O (stereo not given) [Ambrisentan],0.853 ± 0.08
7,CN1C(C(=O)Nc2ccccn2)=C(O)c2sc(Cl)cc2S1(=O)=O [Lornoxicam],0.909 ± 0.15
8,CC(C)C(=O)OCC(=O)C12OC(C3CCCCC3)OC1CC1C3CCC4=CC(=O)C=CC4(C)C3C(O)CC12C (stereo not given) [Ciclesonide],0.497 ± 0.31
9,"CCC(Nc1ncnc2[nH]cnc12)c1nc2cccc(F)c2c(=O)n1-c1ccccc1 (stereo not given) [Idelalisib (CAL-101, GS-1101)]",0.796 ± 0.34
10,O=c1ccc2ccc(O)c(O)c2o1 [Daphnetin],0.8201 ± 0.0077
11,COc1nc2ccc(Br)cc2cc1C(c1ccccc1)C(O)(CCN(C)C)c1cccc2ccccc12 (stereo not given) [Bedaquiline],0.867 ± 0.086
12,CCOc1ccc(Cc2cc(C34OCC(CO)(O3)C(O)C(O)C4O)ccc2Cl)cc1 (stereo not given) [Ertugliflozin],0.928 ± 0.15
13,CC(C)OC(=O)CCC/C=C\CC1C(O)CC(O)C1CCC(O)CCc1ccccc1 (stereo not given) [Latanoprost],0.432 ± 0.46
14,CC12C=CC(=O)C=C1CCC1C3CC(O)C(O)(C(=O)CO)C3(C)CC(O)C12F (stereo not given) [Triamcinolone],0.673 ± 0.29
15,CC(C(=O)O)c1ccc(CC2CCCC2=O)cc1 (stereo not given) [Loxoprofen],0.752 ± 0.026
16,C=C1C(=O)OC2C1CCC(=C)C1CCC(=C)C12 (stereo not given) [Dehydrocostus Lactone],0.925 ± 0.1
17,COc1cc(C2Oc3ccc(C4Oc5cc(O)cc(O)c5C(=O)C4O)cc3OC2CO)ccc1O (stereo not given) [Silymarin],0.702 ± 0.34
18,CCC1(O)CC2CN(CCc3c([nH]c4ccccc34)C(C(=O)OC)(c3cc4c(cc3OC)N(C=O)C3C(O)(C(=O)OC)C(OC(C)=O)C5(CC)C=CCN6CCC43C65)C2)C1 (stereo not given) [Vincristine],1.23 ± 0.47
19,Cn1c(=O)cc(N2CCCC(N)C2)n(Cc2ccccc2C#N)c1=O (stereo not given) [Alogliptin(SYK-322)benzoate],0.911 ± 0.13
20,COc1cc(C2c3cc4c(cc3C(OC3OC5COC(c6cccs6)OC5C(O)C3O)C3COC(=O)C23)OCO4)cc(OC)c1O (stereo not given) [Teniposide],1.03 ± 0.2
